Measurements from PMC10352325, “Nitro-benzylideneoxymorphone, a bifunctional mu and delta opioid receptor ligand with high mu opioid receptor efficacy” (Frontiers in Pharmacology, 2023).

Tested on: C57BL/6 mice
Test: Acute antinociception, 50°C warm water tail withdrawal (WWTW)
Type: in vivo, mouse
Settings: i.p., 32 mg/kg 12 or 10 mg/kg morphine, tested every 30 min
Procedure: The 50°C warm water tail withdrawal (WWTW) antinociception assay is a standard preclinical pain assay, in which clinical analgesics increase the latency of tail removal from the warm water (Figure 2A).
To compare the total antinociceptive activity over time, we determined the area under the curve (AUC) of each ligand’s time-course.
Acute antinociception: 50°C warm-water tail withdrawal test in C57BL/6 mice. […] A maximum cutoff time of 20 s was implemented to prevent tissue damage. […] Drug-stimulated antinociception was expressed as a percentage of maximum possible effect (% MPE), where % MPE = (drug latency—baseline latency)/(cutoff latency—baseline latency) × 100. The acute antinociception results were analyzed with a one-way ANOVA followed by a post hoc Dunnett test comparing the drug(s) to vehicle.

CN1CC[C@]23c4c5ccc(O)c4O[C@H]2[C@@H](O)C=C[C@H]3[C@H]1C5 [morphine, reference compound]
area under the curve (AUC) of antinociceptive time-course: 11,934 s*min
